Results reported in PubChem BioAssay AID1347076 (National Center for Advancing Translational Sciences (NCATS), 2019).
“And” between values parts separate entries of the source, which are not always exact repeats. Equal entries are not always repeated. The whole screen tested about 400,000 compounds, of which about 13,000 (3.2%) were called active. The shares of active, inactive and inconclusive entries below differ from those in the screen. The call rests on the fitted dose curve; in most records, active means well fitted cell-killing curve with a large enough effect; inconclusive means small, poorly fitted or top-dose-only effect, or effect the other way; inactive means flat fitted curve, though single readings scatter. Potencies of inconclusive entries are doubtful fits and often do not repeat.

assay: qHTS assay for MDR1-selective chemotherapeutics: Primary screen using the drug-selected MDR subline cells KB-V1; conditions: KB-V1 MDR cells viability, CellTiter-Glo, 72 h; activity change, negative = cytotoxicity: at 46.1 µM (top of the series); further: nearly all actives have a fitted effect of over 60% in size
Summary of the method: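 In this primary screen, KB-V1 cells overexpressing P-gp are incubated with library compounds (lowest to highest concentration) for 72 h at 37 degrees C before a luminescent ATP viability read.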
On the % scale 0 is the no-effect control and ±100 the full control effect; potency means the concentration at half of the fitted maximal effect.

SMILES | Potency | activity change, negative = cytotoxicity
Cc1ccc(CNC(=O)C2(NC(=O)Nc3ccc(C)cc3)CCCCC2)cc1 | inconclusive: 6.51 µM [cytotoxic, partial curve, poor fit] | 
COCCN1C(=O)c2[nH]nc(-c3cc(C)ccc3O)c2C1c1ccc(C(C)C)cc1 (configuration not stated) | inconclusive: 13 µM [cytotoxic, partial curve, poor fit] | 
O=C(NCc1ccc(F)cc1)c1ccccc1OCc1ccccc1 | inconclusive: 10.3 µM [cytotoxic, partial curve] | 
COC(=O)c1cnc(N2CCN(c3ccccc3F)CC2)c2ccccc12 | inconclusive: 0.184 µM [cytotoxic, full curve] | 
C/C(CC(=O)Nc1cc(Cl)ccc1Cl)=N\NC(N)=S |  | inactive: -2.88%
Cc1ccc(Cn2c(=O)n(CCCC(=O)NCc3ccccc3Cl)c(=O)c3ccccc32)cc1 |  | inactive: -1%
Cc1c(C(=O)NCc2c(F)cc(F)cc2F)oc2ccc(S(=O)(=O)N3CCOCC3)cc12 | inconclusive: 14.6 µM [cytotoxic, partial curve] | 
COC(=O)C(Cc1ccccc1)NC(=O)CNC(=O)c1ccc(Br)o1 (configuration not stated) | inconclusive: 16.4 µM [cytotoxic, partial curve] | 
O=C(O)c1cncc(C#CCC2CCCCC2)c1 |  | inactive: 3.77%
O=C(O)/C=C/C(=O)Nc1ccc(-n2nccc2C(F)(F)F)cc1 | inconclusive: 29.1 µM [rising, single point] | 
CCN1C(=O)/C(=C\N2CCN(c3cccc(Cl)c3)CC2)SC1=S | inconclusive: 25.9 µM [cytotoxic, single point] | 
COc1ccccc1NC(=O)NCCN1CCN(c2cccc(Cl)c2)CC1 | inactive | 
Cc1cccc(C)c1-n1ncc(C(=O)N2CCN(c3ccccc3)CC2)c1C1CCN(C(=O)OC(C)(C)C)CC1 |  | inactive: -15.5%
CCOC(=O)C1(CCc2ccccc2)CCN(C(=O)c2ccoc2)CC1 | inconclusive: 20.6 µM [cytotoxic, single point] | 
COC(=O)C(C)Sc1ncnc2c1c(-c1ccccc1)cn2-c1ccc(F)cc1 (configuration not stated) |  | inactive: -15.4%
Cc1cccn2cc(CSc3nnc(Nc4ccc(C(C)C)cc4)s3)nc12 |  | inconclusive: -31.4%
COc1ccccc1N1CCN(C(=O)CN(Cc2ccc(Cl)cc2)S(C)(=O)=O)CC1 | inconclusive: 10.3 µM [cytotoxic, partial curve] | 
Cc1cncn1CCc1nc2c3ccccc3nc(SCC(=O)Nc3cccc(Cl)c3)n2n1 | inconclusive: 20.6 µM [cytotoxic, single point] and inconclusive: 11.6 µM [cytotoxic, partial curve, poor fit] | 
CC(=O)c1cc2c(cc1NC(=O)CN1CCCCCCC1)OCO2 | inconclusive: 5.8 µM [cytotoxic, full curve] | 
C[C@H](NC(=O)[C@@H]1Cc2ccccc2CN1)C(=O)NCC1CCCO1 (some centres not stated) | inconclusive: 29.1 µM [rising, single point] | 
CCCS(=O)(=O)N1CCN(CCN2C(=O)c3cccc4cccc(c34)C2=O)CC1 | inconclusive: 29.1 µM [cytotoxic, single point] | 

A draw from above in order of formula weight, low to high.
SMILES | Potency | activity change, negative = cytotoxicity
COC(=O)c1cnc(N2CCN(c3ccccc3F)CC2)c2ccccc12 | inconclusive: 0.184 µM [cytotoxic, full curve] | 
COCCN1C(=O)c2[nH]nc(-c3cc(C)ccc3O)c2C1c1ccc(C(C)C)cc1 (configuration not stated) | inconclusive: 13 µM [cytotoxic, partial curve, poor fit] | 
COC(=O)C(Cc1ccccc1)NC(=O)CNC(=O)c1ccc(Br)o1 (configuration not stated) | inconclusive: 16.4 µM [cytotoxic, partial curve] | 

More results:

SMILES | Potency | activity change, negative = cytotoxicity
COc1ccc(C2=Nn3c(nnc3-c3ccccc3OC)SC2)cc1OC | inconclusive: 291 nM [cytotoxic, full curve, poor fit] and active: 1.16 µM | 
CCOC(=O)C1CCCN(C(=O)Cn2nc(CC)n3c(cc4sccc43)c2=O)C1 (configuration not stated) | inconclusive: 25.9 µM [rising, single point] | 
COc1ccccc1OCCn1c(=O)sc2ccccc21 | active: 14.6 µM | 
COc1cc(C2Nc3ccc4ccccc4c3C3=C2C(=O)CC(C)(C)C3)ccc1OCC(=O)O (configuration not stated) | inconclusive: 0.0073 µM [cytotoxic, full curve] | 
CCOc1ccc(C(=O)Nc2cccc(C(=O)O)c2)cc1Cl | inconclusive: 0.0517 µM [rising, full curve, poor fit] | 
CC(=O)OC(c1nc2ccccc2c(=O)n1C1CC2(OC1=O)c1ccccc1N1C(=O)C(C)(C)N(O)C12)C(C)C (configuration not stated) | inconclusive: 3.26 µM [rising, partial curve, poor fit] | 
COc1ccc2c(c1)C(c1ccc(N3CCOCC3)cc1)=NNC(c1cccnc1)=N2 |  | inconclusive: -44.3% [cytotoxic]
CCCCn1c(=O)[nH]c(=O)c2c1nc(-c1ccsc1)n2Cc1ccccc1 | inconclusive: 11.6 µM [cytotoxic, partial curve] | 
CC1CCCCC1NC(=O)c1ccco1 (configuration not stated) |  | inactive: 0%
CCc1nnc(NC(=O)/C=C/c2ccco2)s1 |  | inactive: 21.7%
COc1ccc(CCNC(=O)C2CCN(C(=O)c3ccc(C(C)(C)C)cc3)CC2)cc1 | inconclusive: 18.4 µM [cytotoxic, single point] | 
Nc1nc2n(n1)C(c1ccccc1Cl)CC(c1ccc(F)cc1)N2 (configuration not stated) | inconclusive: 0.146 µM [cytotoxic, full curve, poor fit] | 
Cc1cc(C)c(NC(=S)NC(=O)c2ccccc2)cc1C | inconclusive: 20.6 µM [cytotoxic, single point] | 
CS(=O)(=O)c1ncc(Cl)c(C(=O)Nc2ccc(N3CCOCC3)cc2)n1 |  | inactive: -2.34%
COc1ccc(S(=O)(=O)N(C)CC(=O)NC2CCCC2)cc1Cl | inconclusive: 20.6 µM [cytotoxic, single point] | 
O=C(NCc1ccc(Cl)cc1)C(=O)NCC1OCCN1C(=O)c1cccs1 (configuration not stated) | inconclusive: 8.2 µM [cytotoxic, partial curve] | 
CCCC(=O)Nc1nnc2n1CCS2 | inconclusive: 18.4 µM [rising, partial curve] | 
COc1cccc(NC(=O)c2ccc(S(=O)(=O)N(C)C)cc2)c1 | inconclusive: 11.6 µM [cytotoxic, partial curve, poor fit] | 
COc1cc(OC)nc(Nc2nc(C(N)Cc3ccc(F)cc3)cs2)n1 (configuration not stated) | inconclusive: 29.1 µM [cytotoxic, single point] | 
Cc1ccc(C2CC(=O)Oc3cc(C)c(Br)c(C)c32)cc1 (configuration not stated) | inconclusive: 5.8 µM [rising, full curve, poor fit] | 
O=C/C(=C\Nc1ccccn1)c1nc2cc(Cl)ccc2o1 |  | inactive: -0.19%
